The record followed here is patent US9779901B2, “High temperature material compositions for high temperature thermal cutoff devices” (Therm-O-Disc, Incorporated, priority 2008, dated 2017).

This series can be described thus: Continuous exposure of C5 epoxy sealed TCO devices to 247° C. (pellet retention, pellet height, resistance). The settings on record: for initial pellet height: before exposure to 247° C.; for time until resistance greater than 200 kOhm (actuation): 9 out of 10 HTTCO samples for triptycene; for retention of the thermal pellet compound by the C5 epoxy seal: pellet in sealed TCO housing.

Where [1] appears, read: continuous exposure to 247° C., C5 seal.

As to `c1ccc2c(c1)C1c3ccccc3C2c2ccccc21` [triptycene, 9,10-dihydro-9,10-o-benzeno-9,10-dihydroanthracene], the initial pellet height entry is on record as “about 98 thousandths of an inch”. Further, the pellet height retained entry (continuous exposure to 247° C., C5 seal, for at least 13 weeks) is given as “at least 80 thousandths of an inch”. Further, the “time until resistance greater than 200 kOhm (actuation)” value under setting [1] was “over 2,100 hours”. For the setting “continuous exposure to 247° C.”, the “retention of the thermal pellet compound by the C5 epoxy seal” value (shortened to “retention of the thermal pellet compound”) was “retained”.

With `OCC(CO)(CO)CO` [pentaerythritol, 2,2-Bis(hydroxymethyl)-1,3-propanediol, reference compound], the initial pellet height is given as 101 thousandths of an inch. Further, the “pellet height at Day 1” value (continuous exposure to 247° C., C5 seal, Day 1) was 0.00 thousandths of an inch. Further, the “time until resistance greater than 200 kOhm (actuation)” value under setting [1] is “almost immediately”. The “retention of the thermal pellet compound” value (continuous exposure to 247° C.) is on record as “not retained”.

Take `Nc1cccc2c1C(=O)c1ccccc1C2=O` [1-aminoanthraquinone]: the “retention of the thermal pellet compound” value (continuous exposure to 247° C.) is “even greater retention”.
